# Experimental data taken from PubChem BioAssay AID1259415 (National Center for Advancing Translational Sciences (NCATS), 2018).
# Several values for one entry are separate records, joined by “and”; a condition that tells them apart may be missing. Equal values may be shown once. The campaign covered roughly 410,000 compounds. About 18,000 (4.4%) were called active. The inconclusive results got no clear call from the source; some entries with a clear call stand among them for comparison. Rule as the data show it: active = activity change below about -60%; inconclusive = no clear call, values can overlap the other calls; inactive = above about -39%. A structure can be active in one record and inactive in another.
# Experiment: qHTS Assay for inhibitors of the human cytomegalovirus (HCMV)
# Settings: HFF cells, HCMV-luciferase reporter, 72 h; at 57.5 µM; stronger effect = lower value
# Procedure, shortened: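 Cell-based, HFFs, 1000 cells/well, 16 h 37C; cpds in DMSO + HCMV-luc, MOI 1 PFU/cell; 72 h 37C; OneGlo luminescence after 5 min RT; norm. to buffer vs Salinomycin 10uM.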
# % is scaled to controls: 0 for no effect and ±100 for the full control effect.
row,SMILES,"activity change, negative = inhibition"
1,Cc1ccc(-c2nnn(CC(=O)NCCc3ccc4c(c3)OCO4)n2)cc1,inconclusive: -41.3%
2,COc1ccc(C(C(=O)NC2CCCCC2)N(C(=O)c2cccs2)c2ccc3c(c2)OCO3)cc1 (stereo not given),inconclusive: -49.5%
3,CN(c1ccccc1)S(=O)(=O)c1cccc2ccccc12,inconclusive: -41.4%
4,CN1CCC(CN)(N2CCN(c3ccccc3)CC2)CC1,active: -78.1%
5,CC(C)c1ccc(NC(=S)NNC(=O)c2cccnc2)cc1,inconclusive: -49.3%
6,O=C(N=Nc1c(O)[nH]c2ccc(Br)cc12)c1cc(-c2cccs2)nc2ccccc12,active: -60.6%
7,CCOC(=O)c1cccc(NC(=S)N2CCN(c3ncc4c(=O)c(C(=O)O)cn(CC)c4n3)CC2)c1,inconclusive: -44.5%
8,CN(Cc1ccc(F)cc1)S(=O)(=O)c1ccc2[nH]c(=O)[nH]c2c1,inconclusive: -42.4%
9,O=C(CSc1nnc(-c2ccncc2)n1-c1ccccc1)N1CCN(c2ccc(Cl)cc2)CC1,inactive: 16%
10,CN(c1ccccc1)S(=O)(=O)c1nnc(NC(=O)C2CCCCC2)s1,inactive: 23.8% and inactive: 11.2%
11,CN(C)CCn1c(=O)n(Cc2ccco2)c(=O)c2c3c(sc21)CCCCC3,inactive: -24.8%
12,N#Cc1c(NC(=O)c2ccccc2Cl)n(Cc2ccccc2)c2nc3ccccc3nc12,active: -70.3%
13,CCSc1ccccc1C(=O)Nc1ccc([N+](=O)[O-])cc1OC,inconclusive: -57.7%
14,Cc1ccc(S(=O)(=O)NCCc2csc(-c3ccc(Cl)cc3)n2)cc1,inconclusive: -56.9%
15,CCC1Sc2ccc(S(=O)(=O)CCC(=O)Nc3ccccc3Br)cc2NC1=O (stereo not given),inconclusive: -48.2%
16,CCOc1ccc(-n2c(=O)c3c(C)c(C)sc3n(CC(=O)NCc3ccco3)c2=O)cc1,inconclusive: -40.7%
17,O=S(=O)(Nc1ccc(N2CCOCC2)cc1)c1ccc(F)cc1,inactive: 20.5%
18,COC(=O)C1=C(C)N(C)C(=NCc2ccc3c(c2)OCO3)NC1c1ccc(C(F)(F)F)cc1 (stereo not given),inconclusive: -47.6%
19,CC1CCN(C(=O)CSc2nc(=O)n3cc(Cl)ccc3n2)CC1,inconclusive: -40.2%
20,O=C(Nc1nnc(C2COc3ccccc3O2)o1)c1ccc(F)cc1 (stereo not given),active: -81.3%
21,Cc1nc2cc3ccccc3cc2n1C,inconclusive: -47%
22,Cc1cc(C)c(/C([O-])=C(/C(=S)Nc2ccc(SC(F)F)cc2)[n+]2ccccc2)cc1C,inconclusive: -48.4%

row,SMILES,"activity change, negative = inhibition"
1,CC1(C(=O)NNC(=O)c2cccc([N+](=O)[O-])c2)CC1(Br)Br (stereo not given),inactive: 0%
2,O=C(NCC(=O)N(CCN1CCOCC1)C(C(=O)NC1CCCC1)c1ccccc1)c1cccs1 (stereo not given),inconclusive: -41.7%
3,Cc1cc(=O)n2[nH]c(-c3sccc3-n3c(C)ccc3C)cc2n1,active: -64.1%
4,CCOC(=O)C1(Cc2cccc(F)c2)CCN(Cc2c(C)nn(CC)c2C)CC1,inconclusive: -40.1%
5,O=[N+]([O-])c1ccc(P(=O)(Cc2ccccc2)c2ccccc2O)cc1 (stereo not given),inconclusive: -42.1%
6,CCCN(CCC)CCCNC(=O)Cn1cnc2sc(C)c(S(=O)(=O)N3CCCCC3)c2c1=O,inactive: 25.3% and active: -70.6%
7,c1ccc(CNc2nc(N3CCN(Cc4ccccc4)CC3)nc3ccccc23)cc1,inactive: -17.5%
8,CC/C(=C(\c1ccc(O)cc1)c1ccc(OCCN(C)C)cc1)c1ccccc1,active: -66.8%
9,Nc1nonc1-n1nnc(C(=O)N/N=C/c2ccccc2O)c1CN1CCCC1,inconclusive: -47.1%
10,CC(=O)c1cccc(-c2ccc3c(c2)C(C)(Cc2ccccc2C#N)C(=O)N3)c1 (stereo not given),active: -65.7%
11,O=C(Nc1ccc(Cl)c(C(F)(F)F)c1)NC1CC2CCCC(C1)N2Cc1ccccc1 (stereo not given),inconclusive: -41.4%
12,Cc1cccc(/C=N/NC(=O)C[n+]2ccccc2)c1,inactive: -31.8%
13,Cc1ccc(COc2cccc3c2CCN(Cc2ccc(F)cc2)C3=O)cc1,inconclusive: -58.8%
14,CCC(=O)NC(c1cccs1)c1ccc2cccnc2c1O (stereo not given),active: -101%
15,CCCc1[nH]nc2c1C(c1ccsc1)C(C#N)=C(N)O2 (stereo not given),inconclusive: -52.2%
16,COc1cccc(OC)c1C(=O)NC(=S)Nc1ccc2oc(=O)ccc2c1,inactive: -13.5%
17,CCC(N)C12CC3CC(CC(O)(C3)C1)C2 (stereo not given),inconclusive: -41.5%
18,CCCNC(=O)C1(C)CCCN(C(=O)COc2ccc(Cl)cc2Cl)C1 (stereo not given),active: -100%
19,Cc1ccc(-c2csc3nc[nH]c(=S)c23)cc1,inconclusive: -46.7%
20,CC(NC(=O)Cc1ccc(S(=O)(=O)N2CCOCC2)s1)c1ccc(Cl)cc1Cl (stereo not given),inconclusive: -56%
21,COc1cc2c(cc1OC)C(/C=C/c1ccco1)=NCC2,active: -61.3%
22,CCCCN(C(C)=O)c1ccc2c(c1)C1CC2CCN1C(=O)OCc1ccccc1 (stereo not given),inconclusive: -50%

row,SMILES,"activity change, negative = inhibition"
1,COc1ccccc1NC(=O)C1CCN(S(=O)(=O)c2ccc3c(c2)NC(=O)CO3)CC1,inconclusive: -45.1%
2,COC(=O)C1=C(c2ccccc2)c2ccccc2S(=O)(=O)N1CC(=O)Nc1cccc(C(C)=O)c1,inconclusive: -40.5%
3,Cc1cccc(NC(=O)c2cccc([N+](=O)[O-])c2O)c1C,inconclusive: -44.4%
4,COc1ccc(Cl)cc1S(=O)(=O)NC(C)C(=O)NCc1ccccn1 (stereo not given),inconclusive: -46.3%
5,O=C(Cn1cc2c(n1)CCCC2)N1CCCC1,inconclusive: -51.8%
6,O=C(O)C(Oc1ccc2c3c(c(=O)oc2c1)CCC3)c1ccccc1 (stereo not given),active: -101%
7,CC1CC(c2ccccc2)n2nc(NC(=O)CCc3ccccc3)nc2N1 (stereo not given),inconclusive: -52.3%
8,Cc1nn(-c2ccccn2)c2c1C(=O)CC(C)(C)C2Br (stereo not given),inactive: -13.7%
9,CC1=C(C(N)=O)C(c2cccs2)NC(=O)N1 (stereo not given),inconclusive: -42%
10,Cc1ccc(NC(=S)Nc2cc(C(=O)O)ccc2N2CC3CC(C2)c2cccc(=O)n2C3)cc1C (stereo not given),inconclusive: -47.7%
11,CC1(C(=O)NCc2ccccc2Br)CCN1Cc1ccc(-c2ccccn2)cc1 (stereo not given),inconclusive: -46.9%
12,O=C1NC(=Nc2cccc(O)c2)S/C1=C\c1cccnc1,inconclusive: -51.5%
13,O=c1[nH]cnc2c1nnn2C1OC(CO)C(O)C1O (stereo not given),inconclusive: -45.7%
14,COC(=O)c1ccc2c(=O)n(Cc3ccc(C(=O)NCCCN4CCC(C)CC4)cc3)c(=S)[nH]c2c1,inconclusive: -44.9%
15,Cc1cccc(C(=O)NNC(=O)c2ccc(NC(=O)C(C)(C)C)cc2)c1,inactive: -12.5%
16,COc1ccc(-c2cc3nc(C)cc(N4CCN(C(=O)c5ccoc5)CC4)n3n2)cc1,inactive: -17.9%
17,COc1cc(/C=C(/C#N)C(=O)Nc2ccc(C)cc2)ccc1Oc1nc(Cl)ncc1F,inconclusive: -48.7%
18,CC(C)COc1ccc(CN=C(N)N=C(N)N)cc1Cl,active: -76.5%
19,CCn1c(NCCc2ccc(OC)c(OC)c2)nc2c1c(=O)n(C)c(=O)n2C,active: -71.3%
20,CC(C)[C@@H]1CC[C@@H](C)c2c(-c3ccccc3)n[nH]c21,inconclusive: -52.8%
21,CCOC(=O)C1(CCc2ccccc2)CCN(Cc2ccc(C(=O)OC)cc2)CC1,inactive: -10.4%
22,CC(C)(C)NC(=O)C(c1ccc(O)cc1)N(C(=O)Cn1nnc(-c2ccc(F)cc2)n1)c1ccccc1F (stereo not given),inactive: -12.2%

row,SMILES,"activity change, negative = inhibition"
1,COc1ccc(CN2CCC(=O)N([C@H](CO)CC(C)C)CC2)cc1,inactive: -20%
2,COC(=O)c1ccccc1SCC(=O)Nc1ccc(N2CCOCC2)cc1,inconclusive: -41.6%
3,O=C1NC(=O)N(Cc2ccc(F)cc2)C(=O)/C1=C\c1ccoc1,inconclusive: -51.8%
4,CCOc1cc(C)c(C(C)C)cc1S(=O)(=O)NCc1ccccn1,inactive: -20.9%
5,O=C(NCc1ccco1)c1cccc(S(=O)(=O)N2CCc3ccccc32)c1,inconclusive: -54.2%
6,COc1ccccc1CNC(=O)C/C(C)=N/NC(=O)Cc1ccc(OC)c(OC)c1,active: -65.6%
7,CC(=O)C1=C(c2ccc(Br)cc2)C(=O)c2ccccc2C1=O,inconclusive: -49.2%
8,Cc1ccc(OCC(=O)NC2CC(C)(C)NC(C)(C)C2)c(C)c1,inactive: -3.8%
9,Cc1c(Cl)cccc1NS(=O)(=O)c1ccc2[nH]cc(C(=O)NC3CCCC3)c(=O)c2c1,inactive: 7.23%
10,O=C(NCC(c1ccco1)N1CCCC1)c1cccc(S(=O)(=O)N2CCCCC2)c1 (stereo not given),inactive: -17.6%
11,CCOc1ccc(OCC)c(Nc2nc3ccccc3c3nnc(C)n23)c1,inconclusive: 0%
12,Cc1[nH]c2ccccc2c1-c1nc(N)sc1C,inactive: -27.4%
13,CCC(=O)c1ccc(N2CCN(C(=O)c3cc([N+](=O)[O-])ccc3F)CC2)c(F)c1,inconclusive: -46.8%
14,O=C(c1ccc(F)cc1)N1CCN2C(=O)c3ccccc3C12c1ccc(Cl)cc1 (stereo not given),active: -63.6%
15,Cc1cccc(/C=C2/C(=O)/C(=C/c3ccccc3C)C3CCC2N3C)c1 (stereo not given),inconclusive: -43.2%
16,Cc1ccccc1NS(=O)(=O)c1cc(C(=O)N2CCc3ccccc3C2)ccc1C,inconclusive: -57.7%
17,CCOc1cc(S(=O)(=O)n2ccc(C)n2)ccc1Br,inconclusive: -49.1%
18,COc1ccc(C(=O)NNC(=O)CSc2nc3c(c(=O)n(C)c(=O)n3C)n2C)cc1,inconclusive: -58.1%
19,Cc1ccccc1-c1n[nH]c(=S)n1/N=C/C=C/c1ccco1,inconclusive: -41.1%

# Sorted by formula weight (largest number first): part of the list above
row,SMILES,"activity change, negative = inhibition"
9,Cc1c(Cl)cccc1NS(=O)(=O)c1ccc2[nH]cc(C(=O)NC3CCCC3)c(=O)c2c1,inactive: 7.23%
14,O=C(c1ccc(F)cc1)N1CCN2C(=O)c3ccccc3C12c1ccc(Cl)cc1 (stereo not given),active: -63.6%
2,COC(=O)c1ccccc1SCC(=O)Nc1ccc(N2CCOCC2)cc1,inconclusive: -41.6%
5,O=C(NCc1ccco1)c1cccc(S(=O)(=O)N2CCc3ccccc32)c1,inconclusive: -54.2%
11,CCOc1ccc(OCC)c(Nc2nc3ccccc3c3nnc(C)n23)c1,inconclusive: 0%
7,CC(=O)C1=C(c2ccc(Br)cc2)C(=O)c2ccccc2C1=O,inconclusive: -49.2%
15,Cc1cccc(/C=C2/C(=O)/C(=C/c3ccccc3C)C3CCC2N3C)c1 (stereo not given),inconclusive: -43.2%
